Test results: PubChem BioAssay AID590 (National Center for Advancing Translational Sciences (NCATS), 2007)
Hit rate of the full screen: of about 59,000 compounds, about 6,500 (11%) were called active. The shares of active, inactive and inconclusive entries below differ from those in the screen. Cut-off read from the data, not from the text of the source: active = max dye-equivalent concentration above about 10 nM; inconclusive = mostly about 1.1 nM to 9.6 nM; inactive = weaker than that.

Experiment: qHTS Assay for Spectroscopic Profiling in A350 Spectral Region
Conditions: Compound autofluorescence, 340/450 nm, Alexa 350 dye-equivalents; stronger effect = higher value

Row | SMILES | max dye-equivalent concentration
1 | N#Cc1nc(-c2ccc(OCc3ccccc3Cl)cc2)oc1NCCCn1ccnc1 | inconclusive: 1.6 nM
2 | CCOC(=O)c1nn(-c2ccccc2)c(C#N)c1NC(=O)c1nn(CC)cc1Br | inactive
3 | Cc1ccc(N(Cc2ccccc2)Cc2ccccc2)cc1 | inactive
4 | CC(=O)c1cccc(NC(=O)Nc2cccnc2)c1 | inactive
5 | COc1ccc(CNc2oc(COc3ccc(Cl)cc3)nc2C#N)cc1 | inactive
6 | COc1ccc(Cn2c(C3CC3)nc3ccc(NC(=O)c4ccco4)cc3c2=O)cc1 | inconclusive: 1.9 nM
7 | COCCNS(=O)(=O)c1ccc(SC)cc1 | inactive
8 | C=CCn1c(SCCN2CCOCC2)nc2c1c(=O)[nH]c(=O)n2C | inconclusive: 1.4 nM
9 | O=C(O)CCCC[C@H]1CCSS1 | inactive
10 | CCc1nnc(NC(=O)CSc2nnc(CNc3cccc(C)c3)n2-c2ccccc2)s1 | inconclusive: 4.5 nM
11 | COC(=O)N1CCC2(CC1)CN(C(=O)Nc1cccc(F)c1)C2 | inconclusive: 7.3 nM
12 | Cc1cc(N2CCN(C/C=C/c3ccccc3)CC2)n2ncnc2n1 | inconclusive: 1.2 nM
13 | COC(=O)C1=C(N)Oc2cc(C)n(CC3CCCO3)c(=O)c2C1c1ccccc1 (stereo unspecified) | inconclusive: 1.3 nM
14 | NC(=O)c1c(NC(NC(=O)c2ccco2)(C(F)(F)F)C(F)(F)F)sc2c1CCCC2 | inconclusive: 1.6 nM
15 | COc1ccc(C2CC(=O)C3=C(C2)Nc2ncnn2C3c2ccccc2C)c(OC)c1 (stereo unspecified) | active: 23 nM
16 | CCOc1ccccc1N1CCN(S(=O)(=O)c2cccs2)CC1 | inconclusive: 8.7 nM
17 | O=C(Nc1ccc(CCC(=O)N2CCCC2)cc1)c1ncn[nH]1 | inconclusive: 6.4 nM
18 | COc1ccc(NC(=O)N2CC3(CCN(C(C)=O)CC3)C2)cc1 | inactive
19 | COc1cc(Cl)c(C)cc1NC(=O)COC(=O)c1cnc(C)cn1 | inconclusive: 1.4 nM
20 | CCOC(=O)C1/C(=N\O)CC(C)(O)C(C(=O)OCC)C1c1ccc(OC)c(OC)c1 (stereo unspecified) | inconclusive: 2.4 nM
21 | CCSc1nnc(C)n1-c1ccc(C(=O)O)cc1 | inconclusive: 1.5 nM
22 | Cc1ccc(N2C(=O)[C@@H]3[C@H](C2=O)C2c4ccccc4C=CN2[C@@H]3C(=O)c2ccco2)c(C)c1 (stereo partly specified) | inactive
23 | Cc1nn(Cc2ccc(Cl)c(Cl)c2)c(C)c1NC(=O)c1cc(-c2ccc3c(c2)OCO3)on1 | inconclusive: 7.6 nM

Row | SMILES | max dye-equivalent concentration
24 | COc1ccc(-c2nc3c(=O)n(C)c(=O)[nH]c3n2CCc2ccccc2)cc1 | active: 11 nM
25 | CCCCn1c(S(=O)(=O)O)nc2ccccc21 | inactive
26 | COc1ccccc1CNC(=O)CCC(=O)Nc1nnc(C)s1 | inconclusive: 2.3 nM
27 | COc1ccc(Cc2c(O)nc(SC)n(C(C)=O)c2=O)cc1 | inactive
28 | O=C(Nc1cccnc1)c1ccc(COCC(F)(F)F)cc1 | inactive
29 | O=C(Nc1ccccc1C(=O)NCc1ccccc1)c1ccco1 | inconclusive: 1.3 nM
30 | COc1ccc(OC)c(C2=Nn3c(nnc3-c3cccc(OC(C)C)c3)SC2)c1 | inconclusive: 7.4 nM
31 | Cc1cc(SCC#N)n2nc(C)c(-c3ccccc3)c2n1 | inactive
32 | CCOC(=O)c1cc(-c2ccco2)nc2c1c(C)nn2-c1ccccc1 | active: 24 nM
33 | Cc1cc(C)n(-c2nc(NCC3CCCO3)c3c4c(sc3n2)COC(C)(C)C4)n1 (stereo unspecified) | active: 380 nM
34 | CC(=O)Nc1cccc(C(=O)Oc2cccc(C)c2)c1O | inconclusive: 3.3 nM
35 | O=C(O)CCCC(=O)Nc1nc2n(n1)C(c1ccc(F)cc1)CC(c1ccc(Cl)cc1)N2 (stereo unspecified) | inactive
36 | CCNc1ncc2nc(-c3ccc(F)cc3)c(=O)n(-c3ccccc3)c2n1 | active: 240 nM
37 | NS(=O)(=O)c1ccc(N=Nc2nc3[nH]cnc(=S)c3[nH]2)cc1 | active: 95 nM
38 | CCOC(=O)c1c(NC(=O)C2CCN(S(=O)(=O)c3cccs3)CC2)sc(C)c1C | inconclusive: 1.4 nM
39 | O=C(c1cccc(S(=O)(=O)N2CCCC2)c1)N1CCN(c2ccccc2F)CC1 | inactive
40 | Cc1[nH]c2ccc(-c3nnc(SCC(=O)c4ccccc4F)o3)cc2c1C | inconclusive: 2.2 nM
41 | CC(C)Cc1[nH]c(=O)c(C#N)c2c1CCCC2 | inconclusive: 6.8 nM
42 | Cc1ccc(-n2nc3c(c2NC(=O)c2ccc4c(c2)OCO4)CSC3)cc1 | inactive
43 | CN(Cc1nc(-c2ccccn2)no1)S(=O)(=O)c1ccccc1 | inconclusive: 1.5 nM
44 | COc1ccc(OC)c(C2C(C(=O)c3sc(C)nc3C)=C(O)C(=O)N2CCN2CCOCC2)c1 (stereo unspecified) | inconclusive: 2 nM
45 | CCN1CCN(c2oc(COc3ccc(-c4ccccc4)cc3)nc2C#N)CC1 | inconclusive: 1.4 nM
46 | CCC(c1nnnn1Cc1ccco1)N(CCN1CCOCC1)Cc1cc2cc(C)ccc2[nH]c1=O (stereo unspecified) | inconclusive: 3.7 nM

Row | SMILES | max dye-equivalent concentration
47 | CCOC(=O)C1=C(C)NC(SCC(=O)O)=NC1c1ccccc1 (stereo unspecified) | inconclusive: 1.3 nM
48 | CC(C)(C)n1nnnc1CN1CCN(C2CCCC2)CC1 | inconclusive: 2.3 nM
49 | Cc1cc2c(c(=O)n1CCN(C)C)C(c1ccccc1Br)C(C#N)=C(N)O2 (stereo unspecified) | inconclusive: 3.1 nM
50 | COc1cccc(Nc2ncc3ncc(=O)n(CCC#N)c3n2)c1 | inactive
51 | Cc1cc(C)n(-c2nnc3n2N=C(c2ccccc2)CS3)n1 | inconclusive: 1.3 nM
52 | COc1cc2c(cc1OC)CN(C(=O)c1cccs1)CC2 | inconclusive: 1.1 nM
53 | CCSC1=C(C#N)C(c2ccccc2C)CC(=O)N1 (stereo unspecified) | inactive
54 | Fc1ccc(-c2nnc(CSc3nnc(-c4ccc5c(c4)OCO5)o3)o2)cc1 | inconclusive: 2.7 nM
55 | COCC(=O)Nc1nc2n(n1)C(c1ccccc1)CC(c1ccc(OC)cc1)N2 (stereo unspecified) | active: 18 nM
56 | CCC(C)NC(=O)CSC1=Nc2ccccc2C2=NC(CC(=O)NCc3ccc(F)cc3)C(=O)N12 (stereo unspecified) | active: 260 nM
57 | CCc1nnc(NC(=O)CSc2nnc(-c3c[nH]c4ccccc34)n2CC)s1 | inconclusive: 2.2 nM
58 | Cn1c(=O)[nH]c(=O)c2c1nc(N1CCOCC1)n2CCSc1ncccn1 | inactive
59 | Cn1cccc1/C=N/n1cnnc1 | inconclusive: 2.3 nM
60 | CC1CCCCN1C(=O)CSc1nnc(-c2cccnc2)n1C1CCCCC1 (stereo unspecified) | inconclusive: 2.7 nM
61 | O=C(COC(=O)c1cccnc1Nc1cccc(C(F)(F)F)c1)NCCN1C(=O)CSC1=O | inconclusive: 4.3 nM
62 | O=C(O)CCc1ccc(-c2ccc(F)cc2)n1CC(=O)O | inconclusive: 7.9 nM
63 | Cc1cc(C)c(C#N)c(SCC(=O)CC(=O)OC(C)C)n1 | active: 11 nM
64 | CCn1c(O)c(/C=N/n2cnnc2)sc1=S | inconclusive: 1.1 nM
65 | COc1ccc(OC)c(Nc2cc(C(=O)NCCCN3CCOCC3)c3ccccc3n2)c1 | inconclusive: 5.2 nM
66 | CCCCC(=O)Nc1cccc(-c2nn3c(C)nnc3s2)c1 | inconclusive: 3.7 nM
67 | CCCCc1cc(=O)oc2c(CN3CCCC3)c(O)c(Cl)cc12 | active: 14000 nM
68 | COc1ccc2nc(NC(=O)C3CCN(S(=O)(=O)c4cccc5nsnc45)CC3)sc2c1 | inactive
69 | Cc1ccc(NS(=O)(=O)c2ccc(OCC(=O)NCc3ccco3)cc2)cc1 | inactive

An excerpt from above in order of count of non-hydrogen atoms, falling.
Row | SMILES | max dye-equivalent concentration
54 | Fc1ccc(-c2nnc(CSc3nnc(-c4ccc5c(c4)OCO5)o3)o2)cc1 | inconclusive: 2.7 nM
49 | Cc1cc2c(c(=O)n1CCN(C)C)C(c1ccccc1Br)C(C#N)=C(N)O2 (stereo unspecified) | inconclusive: 3.1 nM
67 | CCCCc1cc(=O)oc2c(CN3CCCC3)c(O)c(Cl)cc12 | active: 14000 nM
53 | CCSC1=C(C#N)C(c2ccccc2C)CC(=O)N1 (stereo unspecified) | inactive
59 | Cn1cccc1/C=N/n1cnnc1 | inconclusive: 2.3 nM

(list continues)

Row | SMILES | max dye-equivalent concentration
70 | CCOCCCNc1nc(=S)[nH]c2cc(OC)c(OC)cc12 | inconclusive: 4.1 nM
71 | COc1ccc(Nc2cc(C)nc(N3CCOCC3)n2)cc1 | inactive
72 | CCOC(=O)N1CCN(C(=O)CCc2nc3sc4c(c3c(=O)[nH]2)CCCC4)CC1 | inconclusive: 2.9 nM
73 | Cc1ccc2c(c1)-c1ccccc1S(=O)(=O)N2 | active: 120 nM
74 | CCC(=O)Nc1ccc(C(=O)Nc2cccnc2)cc1 | inactive
75 | CC(CN(C)Cc1ccccc1)OC(=O)c1cccs1 (stereo unspecified) | inconclusive: 3.9 nM
76 | COc1ccc(NS(=O)(=O)c2cccc3cccnc23)cc1 | inactive
77 | Cc1ccc(-c2nc3ccccc3[nH]2)cc1NC(=O)c1ccco1 | inconclusive: 1.5 nM
78 | FC(F)(F)c1cc(-c2ccco2)nc(NCc2cccnc2)n1 | active: 89 nM
79 | O=C(O)[C@@H]1CCCN1Cc1cc2ccccc2c2ccccc12 | inactive
80 | Cc1ccc2nc3c(cc(C(=O)NCC4CCCO4)n3C)c(=O)n2c1 (stereo unspecified) | inconclusive: 9.8 nM
81 | C#CC(C)(C)NC(=O)c1ccccc1OC | inconclusive: 2.6 nM
82 | N#CCCn1c(=O)c(-c2cccc(C#N)c2)nc2cnc(Oc3ccccc3)nc21 | inconclusive: 2.9 nM
83 | COCCNc1c(-c2ccc(O)cc2)nc2ccc(Cl)cn12 | active: 140 nM
84 | CN(c1ccc(C(=O)N2CCc3ccccc3C2)cc1)S(C)(=O)=O | inconclusive: 2.2 nM
85 | COCCCNC(=O)CCN1C(=O)COc2ccccc21 | inconclusive: 1.9 nM
86 | COCCNc1nc(-c2cccc(NS(C)(=O)=O)c2)nc2ccccc12 | inactive
87 | COc1ccc(-c2noc(CCCC(=O)NCc3ccco3)n2)cc1OC | inactive
88 | CCOC1(OCC)N=C(N)C2(C#N)C(c3ccc(NC(C)=O)cc3)C12C#N (stereo unspecified) | inconclusive: 5 nM
89 | Cc1sc2nc(SCC(=O)Nc3c(C)n(C)n(-c4ccccc4)c3=O)n(C)c(=O)c2c1C | inconclusive: 7.7 nM
90 | Cc1cc(C)n(CCc2nc(-c3cccs3)cs2)n1 | inactive
91 | O=C(c1ccc(-n2cnnn2)cc1)N1CCOCC1 | inconclusive: 1.7 nM
